PubChem BioAssay AID686938, Drosophila RNAi Screening Center, 2013

- Purpose: 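Looking for CRAC channel components and the factors controlling them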 (primary screen)
- System: Drosophila S2R+ cells
- Reagents: long dsRNA against Drosophila genes, about 0.25 µg dsRNA per well, roughly 10,000 cells
- Time to read-out: 5 days of knock-down before the calcium assay
- Treatment: thapsigargin (SERCA pump blocker) to empty calcium stores; entry signal taken 4 min after adding it
- Measurement: 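Duplicate raw fluo-4 intensities per well from a plate reader, at rest and four minutes after thapsigargin emptied calcium stores; entry-to-rest ratio filled for only some wells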
- Direction: calcium entry signal: higher = stronger calcium signal after store depletion; resting calcium signal: higher = higher resting calcium signal
- Units: calcium entry signal in fluorescence units; resting calcium signal in fluorescence units
- Rule for the call: 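Called when the plate z-score of the entry-to-rest ratio, mean of duplicates, falls below −3; wells with low overall dye signal (Fmax z below −2) or more than five off-targets excluded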
- Calls: active = strongly reduced calcium entry; inactive = no strong reduction
The screen tested about 23,000 reagents; shown is a random part of those that have a named target and a result. In the full data, 75 (0.33%) are marked active. 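Raw plate signals without normalisation; calls rest on plate z-scores that were not deposited; ratio present for only 364 wells.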 Entries without a mark were called inactive. Names joined by + are all predicted targets of the reagent. Not given: the dose of the treatment.

CG8642 (GeneID 35845) [DRSC07228] | calcium entry signal, replicate 1: 4.32e7; calcium entry signal, replicate 2: 4.28e7; resting calcium signal, replicate 1: 1.96e7; resting calcium signal, replicate 2: 1.82e7
CG7069 (GeneID 42621) [DRSC16188] | calcium entry signal, replicate 1: 3.90e7; calcium entry signal, replicate 2: 3.48e7; resting calcium signal, replicate 1: 2.01e7; resting calcium signal, replicate 2: 1.60e7
Acp62F (GeneID 38340) [DRSC08136] | calcium entry signal, replicate 1: 4.20e7; calcium entry signal, replicate 2: 4.05e7; resting calcium signal, replicate 1: 2.08e7; resting calcium signal, replicate 2: 1.83e7
hdm (GeneID 31705) [DRSC18013] | calcium entry signal, replicate 1: 2.31e7; calcium entry signal, replicate 2: 3.48e7; resting calcium signal, replicate 1: 1.20e7; resting calcium signal, replicate 2: 1.62e7
CG16985 (GeneID 38323) [DRSC08501] | calcium entry signal, replicate 1: 4.30e7; calcium entry signal, replicate 2: 5.67e7; resting calcium signal, replicate 1: 2.02e7; resting calcium signal, replicate 2: 2.32e7
CG15812 (GeneID 38379) [DRSC08479] | calcium entry signal, replicate 1: 3.51e7; calcium entry signal, replicate 2: 2.86e7; resting calcium signal, replicate 1: 2.04e7; resting calcium signal, replicate 2: 1.52e7
CG17732 (GeneID 40182) [DRSC10283] | calcium entry signal, replicate 1: 3.55e7; calcium entry signal, replicate 2: 5.01e7; resting calcium signal, replicate 1: 1.64e7; resting calcium signal, replicate 2: 2.27e7
CG17207 (GeneID 2768665) [DRSC15198] | calcium entry signal, replicate 1: 3.90e7; calcium entry signal, replicate 2: 4.03e7; resting calcium signal, replicate 1: 2.02e7; resting calcium signal, replicate 2: 1.84e7

A few values from above.
hdm (GeneID 31705) [DRSC18013], resting calcium signal, replicate 2 → 1.62e7
For “resting calcium signal, replicate 2”, CG17732 (GeneID 40182) [DRSC10283] has 2.27e7

Further records follow:
CG15109 (GeneID 37195) [DRSC06536] | calcium entry signal, replicate 1: 4.02e7; calcium entry signal, replicate 2: 4.08e7; resting calcium signal, replicate 1: 1.76e7; resting calcium signal, replicate 2: 1.87e7
CG13786 (GeneID 34006) [DRSC02289] | calcium entry signal, replicate 1: 3.81e7; calcium entry signal, replicate 2: 3.55e7; resting calcium signal, replicate 1: 1.94e7; resting calcium signal, replicate 2: 1.65e7
CG4830 (GeneID 41477) [DRSC15657] | calcium entry signal, replicate 1: 2.05e7; calcium entry signal, replicate 2: 2.37e7; resting calcium signal, replicate 1: 1.22e7; resting calcium signal, replicate 2: 1.34e7
Ada2a + Polr2D [DRSC16206] | calcium entry signal, replicate 1: 4.08e7; calcium entry signal, replicate 2: 5.85e7; resting calcium signal, replicate 1: 5.11e7; resting calcium signal, replicate 2: 2.59e7
Ada2a + Polr2D [DRSC21598] | calcium entry signal, replicate 1: 1.54e7; calcium entry signal, replicate 2: 1.43e7; resting calcium signal, replicate 1: 9.18e6; resting calcium signal, replicate 2: 8.59e6
HP1b (GeneID 31834) [DRSC18418] | calcium entry signal, replicate 1: 1.46e7; calcium entry signal, replicate 2: 3.95e7; resting calcium signal, replicate 1: 8.79e6; resting calcium signal, replicate 2: 1.93e7
